The assay deals with T1, GST-PIAS3-PINIT (UniProt Q9Y6X2).
T1 sequence: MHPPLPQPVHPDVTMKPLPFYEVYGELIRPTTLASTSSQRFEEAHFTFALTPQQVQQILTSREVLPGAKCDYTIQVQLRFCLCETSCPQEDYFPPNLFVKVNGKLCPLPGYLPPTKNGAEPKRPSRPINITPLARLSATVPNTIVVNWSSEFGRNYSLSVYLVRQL
Put plainly: pull-down; GST or GST-PINIT on glutathione sepharose beads, incubated with lysate of COS-7 cells transfected with myc-Ago2 (0.25-1 mg total protein), 4 °C, 1 h; washed in 10 mM HEPES, 150 mM NaCl, pH 7.5, 0.005% Triton-X100; western blot for myc; only the target purified. Background: In western blotting, separated proteins are transferred to a membrane and probed.

The chains behind the UniProt entries cited, without tags or fusion partners.
UniProt Q9UKV8: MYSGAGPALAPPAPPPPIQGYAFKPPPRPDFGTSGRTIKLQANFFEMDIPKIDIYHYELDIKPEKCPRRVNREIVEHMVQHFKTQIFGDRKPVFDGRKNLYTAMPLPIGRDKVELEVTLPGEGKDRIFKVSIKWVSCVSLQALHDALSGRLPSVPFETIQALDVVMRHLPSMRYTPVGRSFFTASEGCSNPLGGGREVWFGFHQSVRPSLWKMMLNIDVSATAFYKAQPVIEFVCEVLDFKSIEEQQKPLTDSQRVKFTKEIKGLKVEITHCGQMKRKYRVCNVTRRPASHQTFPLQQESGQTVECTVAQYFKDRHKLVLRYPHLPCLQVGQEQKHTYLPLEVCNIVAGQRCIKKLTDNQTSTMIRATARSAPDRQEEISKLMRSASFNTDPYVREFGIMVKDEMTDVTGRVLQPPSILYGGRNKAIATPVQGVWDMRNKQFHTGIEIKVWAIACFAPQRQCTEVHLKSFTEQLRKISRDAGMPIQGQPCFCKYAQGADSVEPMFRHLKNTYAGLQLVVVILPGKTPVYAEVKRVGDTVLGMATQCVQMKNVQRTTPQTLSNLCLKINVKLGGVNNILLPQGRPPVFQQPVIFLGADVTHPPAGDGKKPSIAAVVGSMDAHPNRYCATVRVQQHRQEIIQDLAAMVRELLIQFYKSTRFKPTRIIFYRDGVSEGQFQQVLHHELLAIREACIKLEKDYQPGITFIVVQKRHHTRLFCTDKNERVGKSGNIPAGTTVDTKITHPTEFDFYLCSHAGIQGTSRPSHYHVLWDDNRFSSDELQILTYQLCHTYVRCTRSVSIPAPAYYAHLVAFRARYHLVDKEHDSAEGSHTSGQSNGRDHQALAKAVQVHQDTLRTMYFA

No constants are given. Whether binding was seen depends on the method and setting. Binding seen in cells or lysates may run through a third protein. Some entries that bind do so weakly or less than the wild type. Where a sequence is shown, tags or fusion partners need not be part of it.

As to “myc-Ago2 (human myc-tagged Argonaute-2) (from UniProt Q9UKV8 1-859)”, the binding entry was “binds”.

Values taken from article PMC4624959.
